# Measured values published in the supplement of paper PMC6418307.
# Single values of this set are uncertain.
# System: primary mouse cortical neurons
# Experiment: cell health score (luciferase spike-in reads / total reads per well) (fraction); higher = fewer cellular reads, worse cell health / toxicity
# Settings: treatment time 24 h
# [1] = 0.01 µM, sex of neuron culture: Female
# [2] = 0.01 µM, sex of neuron culture: Male
# [3] = 0.1 µM, sex of neuron culture: Female
# [4] = 0.1 µM, sex of neuron culture: Male
# [5] = 1 µM, sex of neuron culture: Female
# [6] = 1 µM, sex of neuron culture: Male
# [7] = 10 µM, sex of neuron culture: Female
# [8] = 10 µM, sex of neuron culture: Male
compound,measurement,setting,value
COc1cc(OC)nc(Sc2cccc(Cl)c2C(=O)O)n1 [Pyrithiobac-sodium],cell health score,[1],0.000605
same,cell health score,[2],0.000657
same,cell health score,[3],0.000964
same,cell health score,[4],0.000922
same,cell health score,[5],0.00103
same,cell health score,[6],0.000719
same,cell health score,[7],0.00102
same,cell health score,[8],0.000805
O=C(O)c1c(Cl)ccc2cc(Cl)cnc12 [Quinclorac],cell health score,[1],0.000612
same,cell health score,[2],0.000534
same,cell health score,[3],0.000758
same,cell health score,[4],0.000817
same,cell health score,[5],0.000763
same,cell health score,[6],0.000751
same,cell health score,[7],0.00108
same,cell health score,[8],0.000493
Fc1ccc(Oc2ccnc3cc(Cl)cc(Cl)c23)cc1 [Quinoxyfen],cell health score,[1],0.000633
same,cell health score,[2],0.000597
same,cell health score,[3],0.000684
same,cell health score,[4],0.000781
same,cell health score,[5],0.000639
same,cell health score,[6],0.000642
same,cell health score,[7],0.00118
same,cell health score,[8],0.000535
CCOC(=O)C(C)Oc1ccc(Oc2cnc3cc(Cl)ccc3n2)cc1 (stereo unspecified) [Quizalofop-ethyl],cell health score,[1],0.000544
same,cell health score,[2],0.000694
same,cell health score,[3],0.000584
same,cell health score,[4],0.000607
same,cell health score,[5],0.000581
same,cell health score,[6],0.000462
same,cell health score,[7],0.000694
same,cell health score,[8],0.000523
CC(C)=CC1C(C(=O)OCc2coc(Cc3ccccc3)c2)C1(C)C (stereo unspecified) [Resmethrin],cell health score,[1],0.000842
same,cell health score,[2],0.000964
same,cell health score,[3],0.00105
same,cell health score,[4],0.000887
same,cell health score,[5],0.000919
same,cell health score,[6],0.000715
same,cell health score,[7],0.000807
same,cell health score,[8],0.000579
C=C(C)[C@H]1Cc2c(ccc3c2O[C@@H]2COc4cc(OC)c(OC)cc4[C@@H]2C3=O)O1 [Rotenone],cell health score,[1],0.0133
same,cell health score,[2],0.0132
same,cell health score,[3],0.0194
same,cell health score,[4],0.0182
same,cell health score,[5],0.0192
same,cell health score,[6],0.0116
same,cell health score,[7],0.0165
same,cell health score,[8],0.00947
C=CCC1=C(C)[C@@H](OC(=O)[C@@H]2[C@@H](C=C(C)C)C2(C)C)CC1=O [S-Bioallethrin],cell health score,[1],0.000641
same,cell health score,[2],0.00103
same,cell health score,[3],0.000839
same,cell health score,[4],0.000786
same,cell health score,[5],0.000716
same,cell health score,[6],0.000847
same,cell health score,[7],0.000918
same,cell health score,[8],0.000764
CN1[C@@H]2C[C@@H](OC(=O)[C@H](CO)c3ccccc3)C[C@H]1[C@@H]1O[C@@H]12 [Scopolamine],cell health score,[1],0.000624
same,cell health score,[2],0.000635
same,cell health score,[3],0.00076
same,cell health score,[4],0.000891
same,cell health score,[5],0.000661
same,cell health score,[6],0.000772
same,cell health score,[7],0.000712
same,cell health score,[8],0.00156
CC1CCC(NC(=O)N(CCCl)N=O)CC1 (stereo unspecified) [Semustine],cell health score,[1],0.0005
same,cell health score,[2],0.000625
same,cell health score,[3],0.000777
same,cell health score,[4],0.000817
same,cell health score,[5],0.000698
same,cell health score,[6],0.00073
same,cell health score,[7],0.00092
same,cell health score,[8],0.000565
CCC/C(=N\OCC)C1=C(O)CC(CC(C)SCC)CC1=O (stereo unspecified) [Sethoxydim],cell health score,[1],0.000588
same,cell health score,[2],0.00102
same,cell health score,[3],0.000848
same,cell health score,[4],0.000954
same,cell health score,[5],0.000832
same,cell health score,[6],0.000627
same,cell health score,[7],0.00114
same,cell health score,[8],0.000623
CCNc1nc(Cl)nc(NCC)n1 [Simazine],cell health score,[1],0.000441
same,cell health score,[2],0.000638
same,cell health score,[3],0.00127
same,cell health score,[4],0.00094
same,cell health score,[5],0.00109
same,cell health score,[6],0.000591
same,cell health score,[7],0.00123
same,cell health score,[8],0.000928
[N-]=[N+]=[N-] [Sodium Azide],cell health score,[1],0.000537
same,cell health score,[2],0.000777
same,cell health score,[3],0.00116
same,cell health score,[4],0.000877
same,cell health score,[5],0.00126
same,cell health score,[6],0.000948
same,cell health score,[7],0.00086
same,cell health score,[8],0.00105
O=[As][O-].[Na+] [Sodium arsenite],cell health score,[1],0.000677
same,cell health score,[2],0.000696
same,cell health score,[3],0.000847
same,cell health score,[4],0.00105
same,cell health score,[5],0.00138
same,cell health score,[6],0.00072
same,cell health score,[7],0.0184
same,cell health score,[8],0.0142
CCC(C)(C)C(=O)OC1=C(c2ccc(Cl)cc2Cl)C(=O)OC12CCCCC2 [Spirodiclofen],cell health score,[1],0.000698
same,cell health score,[2],0.000848
same,cell health score,[3],0.0014
same,cell health score,[4],0.000645
same,cell health score,[5],0.000747
same,cell health score,[6],0.0005
same,cell health score,[7],0.00125
same,cell health score,[8],0.00163
CCCN(CC)CC1COC2(CCC(C(C)(C)C)CC2)O1 (stereo unspecified) [Spiroxamine],cell health score,[1],0.000359
same,cell health score,[2],0.00104
same,cell health score,[3],0.00138
same,cell health score,[4],0.000667
same,cell health score,[5],0.000703
same,cell health score,[6],0.000559
same,cell health score,[7],0.000501
same,cell health score,[8],0.00168
Cc1nn(-c2cc(NS(C)(=O)=O)c(Cl)cc2Cl)c(=O)n1C(F)F [Sulfentrazone],cell health score,[1],0.000594
same,cell health score,[2],0.000987
same,cell health score,[3],0.0011
same,cell health score,[4],0.000808
same,cell health score,[5],0.00127
same,cell health score,[6],0.000601
same,cell health score,[7],0.00115
same,cell health score,[8],0.000851
C[S+]([O-])CCCCN=C=S (stereo unspecified) [Sulforaphane],cell health score,[1],0.00042
same,cell health score,[2],0.000945
same,cell health score,[3],0.00131
same,cell health score,[4],0.00123
same,cell health score,[5],0.000908
same,cell health score,[6],0.000428
same,cell health score,[7],0.0015
same,cell health score,[8],0.00115
O=c1n(Cl)c(=O)n(Cl)c(=O)n1Cl [Symclosene],cell health score,[1],0.000436
same,cell health score,[2],0.000669
same,cell health score,[3],0.000645
same,cell health score,[4],0.000714
same,cell health score,[5],0.000651
same,cell health score,[6],0.000624
same,cell health score,[7],0.000602
same,cell health score,[8],0.000907
CC(=O)O[C@H]1C(=O)[C@@]2(C)[C@H]([C@H](OC(=O)c3ccccc3)[C@]3(O)C[C@H](OC(=O)[C@H](O)[C@@H](NC(=O)c4ccccc4)c4ccccc4)C(C)=C1C3(C)C)[C@]1(OC(C)=O)CO[C@@H]1C[C@@H]2O [Taxol],cell health score,[1],0.000648
same,cell health score,[2],0.000942
same,cell health score,[3],0.000711
same,cell health score,[4],0.00123
same,cell health score,[5],0.000556
same,cell health score,[6],0.000905
same,cell health score,[7],0.00109
same,cell health score,[8],0.000438
CCc1ccc(C(=O)NN(C(=O)c2cc(C)cc(C)c2)C(C)(C)C)cc1 [Tebufenozide],cell health score,[1],0.000497
same,cell health score,[2],0.000536
same,cell health score,[3],0.00109
same,cell health score,[4],0.000863
same,cell health score,[5],0.000771
same,cell health score,[6],0.000925
same,cell health score,[7],0.00165
same,cell health score,[8],0.000469
CCc1nn(C)c(C(=O)NCc2ccc(C(C)(C)C)cc2)c1Cl [Tebufenpyrad],cell health score,[1],0.00158
same,cell health score,[2],0.00433
same,cell health score,[3],0.00947
same,cell health score,[4],0.00374
same,cell health score,[5],0.0106
same,cell health score,[6],0.00614
same,cell health score,[7],0.00641
same,cell health score,[8],0.00435
CCOP(=S)(Oc1cnc(C(C)(C)C)nc1)OC(C)C (stereo unspecified) [Tebupirimfos],cell health score,[1],0.000732
same,cell health score,[2],0.000627
same,cell health score,[3],0.0006
same,cell health score,[4],0.000745
same,cell health score,[5],0.000928
same,cell health score,[6],0.000581
same,cell health score,[7],0.00126
same,cell health score,[8],0.000523
CNC(=O)N(C)c1nnc(C(C)(C)C)s1 [Tebuthiuron],cell health score,[1],0.000542
same,cell health score,[2],0.000451
same,cell health score,[3],0.0007
same,cell health score,[4],0.000544
same,cell health score,[5],0.000536
same,cell health score,[6],0.00055
same,cell health score,[7],0.000731
same,cell health score,[8],0.000445
CC/C(=N\OC/C=C/Cl)C1=C(O)CC(C2CCOCC2)CC1=O (stereo unspecified) [Tepraloxydim],cell health score,[1],0.000477
same,cell health score,[2],0.000834
same,cell health score,[3],0.00101
same,cell health score,[4],0.000801
same,cell health score,[5],0.000613
same,cell health score,[6],0.000704
same,cell health score,[7],0.000962
same,cell health score,[8],0.000425
Cc1[nH]c(=O)n(C(C)(C)C)c(=O)c1Cl [Terbacil],cell health score,[1],0.000554
same,cell health score,[2],0.000647
same,cell health score,[3],0.000844
same,cell health score,[4],0.000922
same,cell health score,[5],0.000612
same,cell health score,[6],0.000615
same,cell health score,[7],0.00139
same,cell health score,[8],0.000643
FC(F)C(F)(F)OCC(Cn1cncn1)c1ccc(Cl)cc1Cl (stereo unspecified) [Tetraconazole],cell health score,[1],0.0006
same,cell health score,[2],0.00101
same,cell health score,[3],0.00126
same,cell health score,[4],0.00117
same,cell health score,[5],0.000994
same,cell health score,[6],0.00091
same,cell health score,[7],0.00111
same,cell health score,[8],0.000951
CC(C)=CC1C(C(=O)OCN2C(=O)C3=C(CCCC3)C2=O)C1(C)C (stereo unspecified) [Tetramethrin],cell health score,[1],0.000331
same,cell health score,[2],0.00128
same,cell health score,[3],0.000815
same,cell health score,[4],0.000723
same,cell health score,[5],0.000656
same,cell health score,[6],0.000571
same,cell health score,[7],0.000728
same,cell health score,[8],0.000695

# Two records picked at random from those above, as already listed:
compound,measurement,setting,value
Cc1nn(-c2cc(NS(C)(=O)=O)c(Cl)cc2Cl)c(=O)n1C(F)F [Sulfentrazone],cell health score,[2],0.000987
CNC(=O)N(C)c1nnc(C(C)(C)C)s1 [Tebuthiuron],cell health score,[7],0.000731

# 5 entries from above, tab-delimited.
compound	measurement	setting	value
CCC/C(=N\OCC)C1=C(O)CC(CC(C)SCC)CC1=O (stereo unspecified) [Sethoxydim]	cell health score	[3]	0.000848
same	cell health score	[4]	0.000954
same	cell health score	[5]	0.000832
same	cell health score	[6]	0.000627
same	cell health score	[7]	0.00114

# Rewritten tab-delimited: entries from further up.
compound	measurement	setting	value
CCC/C(=N\OCC)C1=C(O)CC(CC(C)SCC)CC1=O (stereo unspecified) [Sethoxydim]	cell health score	[6]	0.000627
O=[As][O-].[Na+] [Sodium arsenite]	cell health score	[3]	0.000847
CCOP(=S)(Oc1cnc(C(C)(C)C)nc1)OC(C)C (stereo unspecified) [Tebupirimfos]	cell health score	[7]	0.00126
